# Assay results: the supplement of paper PMC8426693
# The list shows a part of the results.
# Key:
# Assay in all cases: NMR binding call after quantification (hit when 2 of 3 NMR criteria are met) (binary (1 = binding, 0 = not binding)); higher = binding
# Conditions in all cases: RNA concentration 10 µM; fragment concentration 200 µM; 293 K
# SARS-CoV-2 5_SL7 RNA = tested on: SARS-CoV-2 5_SL7 RNA
# SARS-CoV-2 5_SL8 RNA = tested on: SARS-CoV-2 5_SL8 RNA
# [1] = tested on: SARS-CoV-2 attenuator hairpin (att HP) RNA
# [2] = tested on: SARS-CoV-2 frameshift pseudoknot (PK) RNA
Structure (SMILES),NMR binding call (SARS-CoV-2 5_SL7 RNA),NMR binding call (SARS-CoV-2 5_SL8 RNA),NMR binding call [1],NMR binding call [2]
Cc1cccc(C(=O)N2CCC(C(N)=O)CC2)c1,0,0,0,0
CC(=O)Nc1ccc(OC(=O)N2CCCC2)cc1,0,0,0,0
Cc1cnc(N2CCNCC2)s1.Cl.Cl,0,0,0,0
CCOc1cccc(C(=O)Nc2nnn(C)n2)c1,0,0,0,0
Cc1nc(-c2ccccc2)no1,0,0,0,0
O=S1(=O)CCCN1Cc1cccc(F)c1,0,0,0,0
CCNC1CCN(c2ccncc2)CC1,1,0,0,1
CN(CC(=O)O)C(=O)c1ccc(F)cc1,0,0,0,0
Cc1csc(NCC2CCCO2)n1 (stereo not drawn),0,0,0,0
CS(=O)(=O)N1CCN(Cc2ccco2)CC1.O=C(O)C(=O)O,0,0,0,0
CC(C)C(=O)Nc1ccc(N2CCCCC2)cc1,0,0,0,0
CCC(=O)Nc1ccc2[nH]c(=O)[nH]c2c1,0,0,0,0
CC1CCN(C(=O)c2cc3ccccc3o2)CC1,0,0,0,0
CNCC(=O)Nc1cc(C)ccn1,0,0,0,0
C1CN(Cc2nc(C3CC3)no2)CCO1,0,0,0,0
O=C(O)Cc1ccc(-c2ccccc2)cc1,0,0,0,0
CN(Cc1cccc(F)c1)S(N)(=O)=O,0,0,0,0
CN(C)C(=O)CNc1ccccc1,0,0,0,0
NC(=O)C1CCN(C(=O)C2CCCCC2)CC1,0,0,0,0
Cl.Cl.Cl.FC(F)n1ccnc1CN1CCNCC1,0,0,0,0
O=c1[nH]cc(N2CCOCC2)c(=O)[nH]1,0,0,0,0
NC(=O)c1ccccc1NC(=O)c1ccncc1,0,0,0,0
Cc1cc(C(=O)NCC2CCCO2)ns1 (stereo not drawn),0,0,0,0
Cn1nnc(NC(=O)c2ccc(Cl)cc2)n1,0,0,0,0
CC(C)NCc1ccc(N(C)C)cc1,0,0,0,0

# An excerpt of these results, as tab-separated lines.
Structure (SMILES)	NMR binding call (SARS-CoV-2 5_SL7 RNA)	NMR binding call (SARS-CoV-2 5_SL8 RNA)	NMR binding call [1]	NMR binding call [2]
Cc1cc(C(=O)NCC2CCCO2)ns1 (stereo not drawn)	0	0	0	0
Cn1nnc(NC(=O)c2ccc(Cl)cc2)n1	0	0	0	0

# (further entries)

Structure (SMILES),NMR binding call (SARS-CoV-2 5_SL7 RNA),NMR binding call (SARS-CoV-2 5_SL8 RNA),NMR binding call [1],NMR binding call [2]
CNC1CCN(c2ccccc2F)C1=O.Cl (stereo not drawn),0,0,0,0
Cc1nc(C)n(CCC(=O)O)n1,0,0,0,0
CCC(C)NC(=O)c1ccccc1N (stereo not drawn),0,0,0,0
CC(C)(CO)NC(=O)c1cccc(Cl)c1,0,0,0,0
Cc1cccc(C(=O)Nc2ccc(C)cc2O)c1,0,0,0,0
CCNC(=O)c1ccc(NS(C)(=O)=O)cc1,0,0,0,0
COc1cccc2c1CCCC(=O)N2,0,0,0,0
CC(=O)N1CCCNCC1,0,0,0,0
Cc1cccc(NC(=O)CN2CCOCC2)c1C,0,0,,0
c1ccc(CNC2CCNC2)cc1 (stereo not drawn),0,0,,0
c1ccc(SCCN2CCOCC2)cc1,0,0,,0
O=C(NCCc1ccncc1)c1ccccc1F,0,0,,0
COC(=O)Nc1ccc(Cc2ccncc2)cc1,0,0,,0
CCOC(=O)CN1CCCCC1,0,0,0,0
CC(C)(C)NC(=O)Cn1ccc(C(F)(F)F)n1,0,0,,0
Fc1ccc(NC2CCOCC2)nc1,0,0,0,0
CCNc1ccc(C)nn1,0,0,,0
CNC(=O)CCC1CCCCC1,0,0,0,0
CCC(=O)Nc1c(C(N)=O)oc2ccccc12,0,0,0,0
CCN(CC)c1cccc(O)c1,0,0,,0
CC(=O)Nc1nnc(SC(C)C)s1,0,0,0,0
O=C(Nc1ccc(F)cc1)Nc1cccc(O)c1,0,,0,0
Cc1cc(C(=O)Nc2ccc3[nH]ccc3c2)no1,0,,0,0
N#CCC(=O)Nc1ccc(Cl)cc1,0,0,,0
Cc1ccc(N2CCN(C(N)=O)CC2)cc1,0,0,,0
